Experimental data: the supplement of paper PMC10849652
The list shows a part of the results.

The chains behind the UniProt entries cited, without tags or fusion partners. Where a name states a change or a piece, a line headed by the entry shows the natural chain unless it says otherwise.
UniProt O95801: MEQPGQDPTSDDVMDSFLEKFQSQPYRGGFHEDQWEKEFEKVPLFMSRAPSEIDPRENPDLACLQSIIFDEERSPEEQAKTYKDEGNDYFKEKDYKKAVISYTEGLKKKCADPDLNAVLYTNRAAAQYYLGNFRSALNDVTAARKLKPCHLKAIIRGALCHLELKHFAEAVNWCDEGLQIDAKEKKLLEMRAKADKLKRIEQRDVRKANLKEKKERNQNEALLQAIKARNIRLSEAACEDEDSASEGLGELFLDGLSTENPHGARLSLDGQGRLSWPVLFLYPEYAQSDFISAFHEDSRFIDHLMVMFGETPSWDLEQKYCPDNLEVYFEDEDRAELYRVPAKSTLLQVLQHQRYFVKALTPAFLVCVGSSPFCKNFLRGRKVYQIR
UniProt Q9BTX7: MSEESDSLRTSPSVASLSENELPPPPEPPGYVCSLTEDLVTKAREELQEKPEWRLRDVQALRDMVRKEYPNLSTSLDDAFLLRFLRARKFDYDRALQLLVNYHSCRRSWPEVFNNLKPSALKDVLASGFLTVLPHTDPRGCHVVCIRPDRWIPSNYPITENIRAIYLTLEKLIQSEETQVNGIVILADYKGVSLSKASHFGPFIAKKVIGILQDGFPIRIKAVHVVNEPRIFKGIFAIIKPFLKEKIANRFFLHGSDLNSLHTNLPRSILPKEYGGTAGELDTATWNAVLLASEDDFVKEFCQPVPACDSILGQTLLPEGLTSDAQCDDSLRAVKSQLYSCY
UniProt Q16763: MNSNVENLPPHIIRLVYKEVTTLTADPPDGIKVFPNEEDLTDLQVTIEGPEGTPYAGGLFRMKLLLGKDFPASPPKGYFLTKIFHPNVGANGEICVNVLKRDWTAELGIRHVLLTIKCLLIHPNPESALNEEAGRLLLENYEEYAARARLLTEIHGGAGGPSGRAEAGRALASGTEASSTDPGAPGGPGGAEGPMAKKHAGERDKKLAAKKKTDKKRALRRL
UniProt P63146, whole entry, looked up: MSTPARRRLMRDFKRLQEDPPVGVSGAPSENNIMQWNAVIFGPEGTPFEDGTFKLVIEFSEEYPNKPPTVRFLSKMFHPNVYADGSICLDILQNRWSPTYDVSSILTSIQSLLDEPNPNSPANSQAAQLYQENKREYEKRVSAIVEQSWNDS
UniProt Q96CW5, whole entry, looked up: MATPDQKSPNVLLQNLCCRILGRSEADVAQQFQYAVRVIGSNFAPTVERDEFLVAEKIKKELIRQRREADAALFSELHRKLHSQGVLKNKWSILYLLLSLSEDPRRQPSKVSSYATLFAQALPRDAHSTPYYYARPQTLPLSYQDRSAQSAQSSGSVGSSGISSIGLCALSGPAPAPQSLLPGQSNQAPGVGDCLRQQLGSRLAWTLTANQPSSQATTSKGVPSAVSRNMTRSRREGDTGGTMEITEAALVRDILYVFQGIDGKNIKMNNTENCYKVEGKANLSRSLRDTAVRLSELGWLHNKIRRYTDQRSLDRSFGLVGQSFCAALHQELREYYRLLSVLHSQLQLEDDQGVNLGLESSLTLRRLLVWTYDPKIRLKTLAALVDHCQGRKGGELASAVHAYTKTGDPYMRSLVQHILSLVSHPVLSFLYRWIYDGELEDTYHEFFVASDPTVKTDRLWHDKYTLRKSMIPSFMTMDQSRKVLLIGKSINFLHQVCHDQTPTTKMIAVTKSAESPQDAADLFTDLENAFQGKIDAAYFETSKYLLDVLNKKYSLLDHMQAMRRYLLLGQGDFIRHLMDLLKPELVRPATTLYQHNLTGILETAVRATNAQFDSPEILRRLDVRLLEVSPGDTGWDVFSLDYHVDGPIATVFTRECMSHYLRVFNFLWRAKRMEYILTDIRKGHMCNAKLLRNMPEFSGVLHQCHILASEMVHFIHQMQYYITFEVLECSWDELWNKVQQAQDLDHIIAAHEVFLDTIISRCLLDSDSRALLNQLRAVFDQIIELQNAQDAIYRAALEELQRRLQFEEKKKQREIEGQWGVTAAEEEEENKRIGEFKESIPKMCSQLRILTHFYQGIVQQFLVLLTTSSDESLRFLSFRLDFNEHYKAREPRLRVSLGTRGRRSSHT
UniProt Q8N2K1: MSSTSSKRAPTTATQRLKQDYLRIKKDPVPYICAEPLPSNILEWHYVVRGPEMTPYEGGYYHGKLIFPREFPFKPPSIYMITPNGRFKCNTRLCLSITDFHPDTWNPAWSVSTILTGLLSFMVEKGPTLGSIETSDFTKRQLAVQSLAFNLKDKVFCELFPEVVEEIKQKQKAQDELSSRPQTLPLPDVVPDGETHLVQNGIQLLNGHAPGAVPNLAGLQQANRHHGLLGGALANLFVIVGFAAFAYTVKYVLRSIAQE
UniProt Q5BVD1: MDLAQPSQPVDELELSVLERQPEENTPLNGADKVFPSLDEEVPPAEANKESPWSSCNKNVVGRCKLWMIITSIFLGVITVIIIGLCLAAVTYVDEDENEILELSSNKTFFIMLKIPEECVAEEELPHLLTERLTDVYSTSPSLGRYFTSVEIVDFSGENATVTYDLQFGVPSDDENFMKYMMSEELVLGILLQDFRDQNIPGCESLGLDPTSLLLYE
UniProt Q9P2K2: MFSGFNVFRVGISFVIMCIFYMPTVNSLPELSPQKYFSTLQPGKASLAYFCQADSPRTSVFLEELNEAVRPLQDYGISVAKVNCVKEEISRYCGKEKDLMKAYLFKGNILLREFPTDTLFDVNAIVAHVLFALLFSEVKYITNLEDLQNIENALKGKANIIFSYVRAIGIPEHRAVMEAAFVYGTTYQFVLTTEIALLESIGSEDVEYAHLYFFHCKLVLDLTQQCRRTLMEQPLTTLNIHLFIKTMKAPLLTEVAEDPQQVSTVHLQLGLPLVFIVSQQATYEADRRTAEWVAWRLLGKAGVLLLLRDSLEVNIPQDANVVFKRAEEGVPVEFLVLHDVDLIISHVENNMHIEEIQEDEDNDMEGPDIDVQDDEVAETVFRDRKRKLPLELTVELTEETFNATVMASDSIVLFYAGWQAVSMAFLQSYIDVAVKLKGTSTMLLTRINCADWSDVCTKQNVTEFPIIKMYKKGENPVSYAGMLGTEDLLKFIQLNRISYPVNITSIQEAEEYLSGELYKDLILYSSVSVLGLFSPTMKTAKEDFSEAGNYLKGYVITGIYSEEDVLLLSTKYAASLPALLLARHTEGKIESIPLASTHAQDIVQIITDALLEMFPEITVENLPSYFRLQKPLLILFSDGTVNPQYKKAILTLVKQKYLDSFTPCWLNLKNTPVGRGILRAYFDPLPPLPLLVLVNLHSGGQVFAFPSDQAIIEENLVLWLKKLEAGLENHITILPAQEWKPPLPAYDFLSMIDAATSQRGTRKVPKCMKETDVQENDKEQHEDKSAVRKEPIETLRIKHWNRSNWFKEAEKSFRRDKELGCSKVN
UniProt Q13885, whole entry, looked up: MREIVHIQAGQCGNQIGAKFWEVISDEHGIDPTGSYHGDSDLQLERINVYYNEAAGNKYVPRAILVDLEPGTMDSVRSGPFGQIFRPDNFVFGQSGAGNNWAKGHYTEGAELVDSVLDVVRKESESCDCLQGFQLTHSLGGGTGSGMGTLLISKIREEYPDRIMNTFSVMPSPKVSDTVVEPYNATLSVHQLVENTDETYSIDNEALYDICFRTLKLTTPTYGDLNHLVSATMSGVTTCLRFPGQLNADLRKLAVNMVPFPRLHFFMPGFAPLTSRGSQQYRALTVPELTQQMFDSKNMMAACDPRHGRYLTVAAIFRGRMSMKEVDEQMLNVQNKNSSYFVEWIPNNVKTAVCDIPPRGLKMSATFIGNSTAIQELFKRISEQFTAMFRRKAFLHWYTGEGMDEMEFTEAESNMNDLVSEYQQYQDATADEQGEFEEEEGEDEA
UniProt Q86TV6: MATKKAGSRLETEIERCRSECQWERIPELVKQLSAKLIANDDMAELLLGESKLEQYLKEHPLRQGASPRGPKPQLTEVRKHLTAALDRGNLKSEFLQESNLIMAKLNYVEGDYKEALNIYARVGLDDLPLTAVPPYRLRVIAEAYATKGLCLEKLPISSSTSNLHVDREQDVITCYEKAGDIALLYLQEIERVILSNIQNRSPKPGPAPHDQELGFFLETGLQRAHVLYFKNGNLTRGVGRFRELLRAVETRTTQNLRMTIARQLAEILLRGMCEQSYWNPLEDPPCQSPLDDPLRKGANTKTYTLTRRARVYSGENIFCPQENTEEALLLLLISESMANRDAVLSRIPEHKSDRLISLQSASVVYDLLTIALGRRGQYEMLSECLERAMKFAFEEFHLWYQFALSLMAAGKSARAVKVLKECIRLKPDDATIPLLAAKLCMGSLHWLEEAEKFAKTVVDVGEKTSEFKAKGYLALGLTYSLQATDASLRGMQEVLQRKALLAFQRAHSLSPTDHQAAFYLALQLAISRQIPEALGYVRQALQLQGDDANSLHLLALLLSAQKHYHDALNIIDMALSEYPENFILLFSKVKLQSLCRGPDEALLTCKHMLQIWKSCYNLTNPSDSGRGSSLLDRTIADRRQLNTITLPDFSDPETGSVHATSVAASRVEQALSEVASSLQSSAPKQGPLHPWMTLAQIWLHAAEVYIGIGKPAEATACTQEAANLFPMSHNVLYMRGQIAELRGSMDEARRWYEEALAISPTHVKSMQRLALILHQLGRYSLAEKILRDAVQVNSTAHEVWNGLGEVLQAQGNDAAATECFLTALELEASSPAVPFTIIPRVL
UniProt Q99757: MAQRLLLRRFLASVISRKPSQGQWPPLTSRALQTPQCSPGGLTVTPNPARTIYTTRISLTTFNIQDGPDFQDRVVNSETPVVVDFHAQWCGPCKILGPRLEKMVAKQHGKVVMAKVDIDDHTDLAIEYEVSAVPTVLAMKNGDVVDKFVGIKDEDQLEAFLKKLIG
UniProt P51965: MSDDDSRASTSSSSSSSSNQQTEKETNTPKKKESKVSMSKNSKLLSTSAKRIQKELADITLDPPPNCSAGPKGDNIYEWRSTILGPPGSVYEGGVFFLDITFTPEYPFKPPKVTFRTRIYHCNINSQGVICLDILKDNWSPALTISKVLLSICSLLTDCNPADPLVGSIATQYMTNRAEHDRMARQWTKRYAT
UniProt O95881: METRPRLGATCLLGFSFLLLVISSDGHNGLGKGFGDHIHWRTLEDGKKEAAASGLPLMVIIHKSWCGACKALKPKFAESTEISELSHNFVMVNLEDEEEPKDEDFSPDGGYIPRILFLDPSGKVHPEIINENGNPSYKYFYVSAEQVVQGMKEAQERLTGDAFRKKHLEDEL
UniProt Q12999: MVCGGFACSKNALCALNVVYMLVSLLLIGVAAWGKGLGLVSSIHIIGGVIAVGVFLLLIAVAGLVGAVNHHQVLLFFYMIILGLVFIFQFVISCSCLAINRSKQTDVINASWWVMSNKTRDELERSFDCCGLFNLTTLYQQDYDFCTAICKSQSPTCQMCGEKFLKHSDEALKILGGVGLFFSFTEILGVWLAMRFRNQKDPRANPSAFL
UniProt P40222: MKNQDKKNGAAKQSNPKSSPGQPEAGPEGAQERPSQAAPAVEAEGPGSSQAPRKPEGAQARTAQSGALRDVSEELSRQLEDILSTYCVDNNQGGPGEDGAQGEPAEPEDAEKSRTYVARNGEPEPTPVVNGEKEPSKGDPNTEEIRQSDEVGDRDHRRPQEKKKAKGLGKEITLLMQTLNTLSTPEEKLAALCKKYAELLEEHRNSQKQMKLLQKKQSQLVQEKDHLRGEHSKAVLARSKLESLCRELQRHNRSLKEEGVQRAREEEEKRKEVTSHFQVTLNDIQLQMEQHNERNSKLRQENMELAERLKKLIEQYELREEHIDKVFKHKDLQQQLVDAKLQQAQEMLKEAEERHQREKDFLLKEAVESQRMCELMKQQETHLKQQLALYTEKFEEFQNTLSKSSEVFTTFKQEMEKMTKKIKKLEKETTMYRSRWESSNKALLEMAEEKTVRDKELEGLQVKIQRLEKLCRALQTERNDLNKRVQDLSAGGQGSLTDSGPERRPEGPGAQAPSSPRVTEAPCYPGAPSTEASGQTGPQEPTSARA
UniProt Q9UBT2: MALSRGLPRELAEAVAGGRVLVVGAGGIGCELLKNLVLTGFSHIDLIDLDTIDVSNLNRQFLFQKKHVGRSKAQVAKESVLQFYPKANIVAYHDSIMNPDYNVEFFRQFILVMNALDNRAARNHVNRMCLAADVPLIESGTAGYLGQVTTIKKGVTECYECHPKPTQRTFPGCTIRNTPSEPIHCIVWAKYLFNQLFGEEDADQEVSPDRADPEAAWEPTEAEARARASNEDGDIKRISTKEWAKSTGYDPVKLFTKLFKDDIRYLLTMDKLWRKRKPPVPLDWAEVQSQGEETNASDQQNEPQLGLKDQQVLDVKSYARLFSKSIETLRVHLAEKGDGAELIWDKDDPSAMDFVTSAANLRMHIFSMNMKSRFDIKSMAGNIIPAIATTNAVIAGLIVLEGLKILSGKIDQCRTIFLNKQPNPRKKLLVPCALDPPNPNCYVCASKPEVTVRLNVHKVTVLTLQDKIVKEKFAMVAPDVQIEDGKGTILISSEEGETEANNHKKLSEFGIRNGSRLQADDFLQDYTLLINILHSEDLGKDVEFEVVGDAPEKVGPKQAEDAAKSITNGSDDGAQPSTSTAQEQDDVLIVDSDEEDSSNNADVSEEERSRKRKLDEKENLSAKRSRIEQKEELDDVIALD

Key:
Assay in all cases: log2 fold change, soluble protein after heating vs DMSO (PISA); higher = thermal stabilisation; K562 cells, 10 uM, 30 min; active = over 0.2 and 3.5 SD of the protein, either way, in both replicates (recomputed)
[1] = compound: NC(=O)Nc1cc(-c2cccc(F)c2)sc1C(=O)N[C@H]1CCCNC1
How it was run: (§1)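 Quantification of soluble protein used TMTpro 16plex LC-MS/MS, with channel sums equalised. Samples were the supernatant after 21,000xg for 90 min of pooled aliquots from K562 cells (2×10^6 cells/mL) treated with 10 μM compound for 30 min, heated for 3 min over 48°C-58°C, and extracted in PBS with 0.5% NP-40 at 4°C. Values, from duplicates, describe thermal stability against control samples on a log2 fold-change scale.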

[2] = compound: NC(=O)c1cnc(N[C@@H]2CCCC[C@@H]2N)nc1Nc1cccc(-n2nccn2)c1
How it was run: as §1

[3] = compound: NC1(c2ccc(-c3nc4ccn5c(=O)[nH]nc5c4cc3-c3ccccc3)cc2)CCC1
How it was run: as §1

[4] = compound: NCC(=O)Nc1ccc(-n2nc(C(F)(F)F)cc2-c2ccc3c(ccc4ccccc43)c2)cc1
How it was run: as §1

entinostat = compound: Nc1ccccc1NC(=O)c1ccc(CNC(=O)OCc2cccnc2)cc1 [entinostat]
How it was run: as §1

vorinostat = compound: O=C(CCCCCCC(=O)Nc1ccccc1)NO [vorinostat]
How it was run: as §1

citarinostat = compound: O=C(CCCCCCNC(=O)c1cnc(N(c2ccccc2)c2ccccc2Cl)nc1)NO [citarinostat]
How it was run: as §1

silmitasertib = compound: O=C(O)c1ccc2c(c1)nc(Nc1cccc(Cl)c1)c1ccncc12 [silmitasertib]
How it was run: as §1

[5] = compound: O=C1NC(=O)C(c2cnc3ccccn23)=C1c1cn2c3c(cc(F)cc13)CN(C(=O)N1CCCCC1)CC2
How it was run: as §1

[6] = compound: c1cc(OCCN2CCCCC2)cc(-c2n[nH]c3ccc(-c4nnc[nH]4)cc23)c1
How it was run: as §1

Measured: log2 fold change

TTC4 (UniProt O95801)
inactive: [1] -0.071 | [2] -0.047 | [3] -0.064 | [4] -0.073 | entinostat 0.069 | vorinostat 0.077 | citarinostat 0.064 | silmitasertib 0.074 | [5] -0.051 | [6] -0.014

TTPAL (UniProt Q9BTX7)
inactive: [1] -0.04 | [2] -0.067 | [4] 0.032 | entinostat 0.018 | vorinostat -0.034 | citarinostat 0.04 | [5] -0.004 | [6] -0.053

TTC9C (UniProt Q8N5M4)
inactive: [1] 0.063 | [2] 0.026 | [3] -0.119 | [4] 0.043 | entinostat 0.067 | vorinostat 0.041 | citarinostat 0.012 | silmitasertib -0.016 | [5] -0.037 | [6] 0.017

UBE2S (UniProt Q16763)
inactive: [1] -0.04 | [2] -0.043 | [3] -0.033 | [4] -0.086 | entinostat -0.026 | vorinostat 0.002 | citarinostat 0.072 | silmitasertib 0.069 | [5] -0.106 | [6] -0.032

UBE2B (UniProt P63146)
inactive: [1] 0.074 | [2] -0.089 | [3] -0.133 | [4] -0.008 | entinostat 0.077 | vorinostat 0.106 | citarinostat 0.072 | silmitasertib -0.007 | [5] 0.023 | [6] -0.037

UBE2G2 (UniProt P60604)
inactive: [1] 0.032 | [2] 0.128 | [3] -0.086 | [4] -0.25 | entinostat 0.356 | vorinostat 0.102 | citarinostat -0.018 | silmitasertib -0.001 | [6] -0.098

TYW3 (UniProt Q6IPR3)
inactive: [1] 0.008 | [2] 0.05 | [3] 0.073 | [4] 0.082 | entinostat -0.023 | vorinostat 0.01 | citarinostat -0.002 | silmitasertib -0.079 | [5] -0.06 | [6] -0.087

TUBB4A (UniProt M0QYM7)
inactive: [1] -0.199 | [2] -0.313 | [3] -0.566 | [4] -0.245 | entinostat -0.127 | vorinostat -0.116 | citarinostat -0.153 | silmitasertib 0.156 | [5] 0.068 | [6] -0.106

TUBB6 (UniProt K7ES63)
inactive: [1] -0.058 | [2] -0.158 | [3] -0.272 | [4] -0.117 | entinostat -0.09 | citarinostat 0.001 | silmitasertib 0.136 | [5] 0.01 | [6] -0.089

TUBGCP3 (UniProt Q96CW5)
inactive: [1] 0.03 | [2] -0.029 | [3] -0.042 | [4] 0.107 | entinostat 0.078 | vorinostat -0.079 | silmitasertib 0.158 | [5] -0.042

UBE2J2 isoform 3 (UniProt Q8N2K1)
inactive: [1] -0.072 | [2] 0.028 | [4] 0.213 | entinostat -0.067 | vorinostat 0.156 | citarinostat 0.1 | [5] -0.299 | [6] -0.039

TXNL4A (UniProt P83876)
inactive: [1] -0.011 | [2] -0.026 | [3] -0.085 | [4] -0.051 | entinostat -0.015 | vorinostat -0.013 | citarinostat 0.02 | silmitasertib -0.036 | [5] -0.054 | [6] -0.072

UBE2E3 (UniProt Q969T4)
inactive: [1] -0.007 | [2] -0.052 | [3] -0.155 | [4] -0.106 | entinostat 0.051 | vorinostat 0.103 | citarinostat 0.063 | silmitasertib -0.016 | [5] 0.023 | [6] -0.007

TTMP isoform 3 (UniProt Q5BVD1)
inactive: [1] 0.042 | [2] -0.154 | [3] -0.016 | entinostat -0.161 | vorinostat 0.132 | silmitasertib -0.025 | [5] -0.426

TXNDC16 (UniProt Q9P2K2)
inactive: [1] -0.011 | [2] -0.074 | [3] -0.048 | [4] 0.021 | entinostat 0.098 | vorinostat -0.063 | citarinostat -0.084 | silmitasertib 0.08 | [5] 0.037 | [6] 0.02

TTN isoform 12 (UniProt Q8WZ42)
inactive: [1] -0.464 | [2] -0.179 | [3] 0.08 | [4] -0.23 | entinostat -0.18 | vorinostat 0.106 | citarinostat -0.108 | silmitasertib -0.042 | [5] -0.146 | [6] -0.163

TSFM (UniProt P43897)
inactive: [1] -0.068 | [2] 0.03 | [3] -0.05 | [4] -0.076 | entinostat 0.162 | vorinostat 0.016 | citarinostat 0.181 | silmitasertib 0.11 | [5] -0.043 | [6] 0

TUBB2A (UniProt Q13885)
inactive: [1] -0.012 | [2] 0.03 | [3] 0.01 | [4] 0.024 | entinostat -0.005 | vorinostat 0.013 | citarinostat -0.019 | silmitasertib -0.05 | [5] -0.018 | [6] -0.016

TTC7B isoform 2 (UniProt Q86TV6)
inactive: [1] -0.262 | [2] -0.039 | [4] -0.379 | entinostat 0 | vorinostat 0.031 | citarinostat -0.095 | [6] -0.18

TXN2 (UniProt Q99757)
inactive: [1] -0.039 | [2] -0.009 | [3] 0.088 | [4] 0.049 | entinostat 0.023 | vorinostat -0.072 | citarinostat 0.054 | silmitasertib -0.072 | [5] -0.09 | [6] -0.036

Fetched one by one from the list above (2):
UBE2G2 (UniProt P60604)
inactive: [1] 0.032 | [2] 0.128 | [3] -0.086 | [4] -0.25 | entinostat 0.356 | vorinostat 0.102 | citarinostat -0.018 | silmitasertib -0.001 | [6] -0.098

TTMP isoform 3 (UniProt Q5BVD1)
inactive: [1] 0.042 | [2] -0.154 | [3] -0.016 | entinostat -0.161 | vorinostat 0.132 | silmitasertib -0.025 | [5] -0.426

(listing goes on)

UBE2E1 (UniProt P51965)
inactive: [1] 0.033 | [2] -0.046 | [3] 0.317 | [4] -0.213 | entinostat 0.11 | vorinostat -0.028 | silmitasertib 0.103 | [5] -0.038

TXNDC12 (UniProt O95881)
inactive: [1] -0.176 | [2] -0.033 | [3] -0.002 | [4] 0.093 | entinostat -0.063 | vorinostat -0.016 | citarinostat -0.029 | silmitasertib 0.002 | [5] -0.016 | [6] -0.069

TSPAN31 (UniProt Q12999)
inactive: [1] 0.118 | [2] -0.003 | [3] -0.041 | entinostat -0.009 | citarinostat 0.164 | silmitasertib -0.076 | [5] 0.027 | [6] 0.189

UBA1 (UniProt P22314)
inactive: [1] -0.044 | [2] -0.112 | [3] -0.275 | [4] -0.101 | entinostat 0.159 | vorinostat 0.167 | citarinostat 0.125 | silmitasertib 0.018 | [5] -0.013 | [6] -0.028

TUSC3 isoform 2 (UniProt Q13454)
inactive: [1] 0.051 | [2] 0.004 | [3] 0.036 | [4] -0.033 | entinostat 0.053 | vorinostat -0.06 | citarinostat -0.01 | silmitasertib 0.012 | [5] 0.045 | [6] -0.023

TXLNA (UniProt P40222)
inactive: [1] 0 | [2] -0.016 | [3] -0.036 | [4] -0.042 | entinostat 0.008 | vorinostat -0.01 | citarinostat 0.027 | silmitasertib 0.008 | [5] -0.012 | [6] 0.002

TSPAN3 (UniProt O60637)
inactive: [1] 0.047 | [2] 0.015 | [3] -0.041 | [4] -0.134 | entinostat -0.026 | citarinostat -0.007 | silmitasertib 0.098 | [6] -0.044

TTLL12 (UniProt Q14166)
inactive: [1] 0.137 | [2] 0.002 | [3] 0.183 | [4] 0.123 | entinostat 0.081 | vorinostat 0.063 | citarinostat -0.068 | silmitasertib 0.154 | [5] 0.146 | [6] -0.161

UBA2 (UniProt Q9UBT2)
inactive: [1] -0.006 | [2] -0.048 | [3] -0.039 | [4] -0.053 | entinostat 0.03 | vorinostat 0.004 | citarinostat 0.036 | silmitasertib 0.078 | [5] -0.047 | [6] 0.014
